# Laboratory results as given in PubChem BioAssay AID2519 (Broad Institute, 2010).
# The list shows a part of the results. Results with a measured potency or affinity are listed apart. Where no call is shown, the source marks the result inconclusive.
# Test: Human PRP PAR1-stimulated dense granule ATP secretion inhibition, luminescent dose-response retest (AID 2519)
# Details: human platelet-rich plasma, SFLLRN dense granule ATP luminescence; at 16 µM (top of the series)
structure (smiles),measurement,value
CC(=O)Nc1ccc(/C=N/NC(=O)CC2CCCCC2)cc1,"activity change, negative = inhibition",17.5%
